This is an account of results in the supplement of paper PMC4604168 (melanoma cell lines).

The other results are listed elsewhere or left out. Many values rest on one well or one pass, so single values are uncertain.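 The apoptosis fraction was the count of cleaved-PARP antibody-stained nuclei relative to all DNA-stained nuclei, imaged in 1,536-well plates. Screening doses were set so most cells survived, and baseline and induced cleaved-PARP levels vary greatly across cell lines.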

The test system of one experiment is IPC-298. The experiment in a line: cleaved PARP positive nuclei fraction relative to DMSO control; melanoma cells; higher = more apoptosis. The note with it: library dose: low library concentration; 72 h.
On to `C[As](C)SC[C@H](NC(=O)CC[C@H](N)C(=O)O)C(=O)NCC(=O)O` [Darinaparsin] + Cn1cc(/C=C2\C(=O)Nc3cccnc32)c2ccccc21 [GW441756] (first compound 0.4 µM, partner dose 0.4 µM), for which the “cleaved PARP positive nuclei fraction” value came to 222%. On the same count and under the same terms, as for `O=C(CCCCCCC(=O)Nc1ccccc1)NO` [vorinostat] + O=C(Oc1ccc([N+](=O)[O-])cc1)N1CCC(C(O)(c2ccc3c(c2)OCO3)c2ccc3c(c2)OCO3)CC1 [JZL184] (first compound 0.08 µM, partner dose 1 µM), the figure is 127%. Same read-out and setting: as for `C=CCn1c(=O)c2cnc(Nc3ccc(N4CCN(C)CC4)cc3)nc2n1-c1cccc(C(C)(C)O)n1` + C/C(O)=C(\C#N)C(=O)Nc1cc(Br)ccc1Br [LFM-A13] (first compound 0.02 µM, partner dose 2 µM), the figure is 166%; as for `Cc1cc(SCc2sc(-c3ccc(C(F)(F)F)c(F)c3)nc2C)ccc1OCC(=O)O` + COc1cc2ncnc(Nc3ccc(Oc4ccccc4)cc3)c2cc1OC [SrcI1] (first compound 2 µM, partner dose 2 µM), 68.7%; as for `Cn1cc(C2=C(c3cn(C4CCN(Cc5ccccn5)CC4)c4ccccc34)C(=O)NC2=O)c2ccccc21` [Enzastaurin] + CC(=O)O[C@@]12CO[C@@H]1C[C@H](O)[C@@]1(C)C(=O)[C@H](O)C3=C(C)[C@@H](OC(=O)[C@H](O)[C@@H](NC(=O)OC(C)(C)C)c4ccccc4)C[C@@](O)([C@@H](OC(=O)c4ccccc4)[C@H]21)C3(C)C [Docetaxel] (first compound 0.8 µM, partner dose 0.0001 µM), 767%.

As to `O=C(/C=C/c1cccnc1)NCCCCC1CCN(C(=O)c2ccccc2)CC1` + C[As](C)SC[C@H](NC(=O)CC[C@H](N)C(=O)O)C(=O)NCC(=O)O [Darinaparsin] (first compound 0.01 µM, partner dose 0.4 µM), the “cleaved PARP positive nuclei fraction” value is 392%. Same read-out and setting: as for `C#Cc1cccc(Nc2ncnc3cc(OCCOC)c(OCCOC)cc23)c1` [erlotinib] + Cc1cc(SCc2sc(-c3ccc(C(F)(F)F)c(F)c3)nc2C)ccc1OCC(=O)O [GW0742] (first compound 0.8 µM, partner dose 2 µM), the figure is 26.4%; as for `C[As](C)SC[C@H](NC(=O)CC[C@H](N)C(=O)O)C(=O)NCC(=O)O` [Darinaparsin] + COc1ccc(-c2ccc3c(N4CCOCC4)nc(N4C[C@@H](C)O[C@@H](C)C4)nc3n2)cc1CO [KU0063794] (first compound 0.4 µM, partner dose 0.02 µM), 148%.

As to `Cn1cc(C2=C(c3cn(C4CCN(Cc5ccccn5)CC4)c4ccccc34)C(=O)NC2=O)c2ccccc21` [Enzastaurin] + C[C@@H](Oc1cc(-c2cnn(C3CCNCC3)c2)cnc1N)c1c(Cl)ccc(F)c1Cl [Crizotinib] (first compound 0.8 µM, partner dose 0.2 µM), the “cleaved PARP positive nuclei fraction” value turned out to be 175%.

As for `COc1ccc(C2=N[C@@H](c3ccc(Cl)cc3)[C@@H](c3ccc(Cl)cc3)N2C(=O)N2CCNC(=O)C2)c(OC(C)C)c1` [Nutlin-3] + O=C(Oc1ccc([N+](=O)[O-])cc1)N1CCC(C(O)(c2ccc3c(c2)OCO3)c2ccc3c(c2)OCO3)CC1 [JZL184] (first compound 0.1 µM, partner dose 1 µM), the “cleaved PARP positive nuclei fraction” value turned out to be 160%.

Another experiment relates to IST-MEL1. The description is as above. The note with it: library dose: low library concentration; 72 h.
Consider `C[C@@H]1CCN(C(=O)CC#N)C[C@@H]1N(C)c1ncnc2[nH]ccc12` + O=C(Oc1ccc([N+](=O)[O-])cc1)N1CCC(C(O)(c2ccc3c(c2)OCO3)c2ccc3c(c2)OCO3)CC1 [JZL184] (first compound 1 µM, partner dose 1 µM), for which the “cleaved PARP positive nuclei fraction” value stood at 243%. As for `C[As](C)SC[C@H](NC(=O)CC[C@H](N)C(=O)O)C(=O)NCC(=O)O` [Darinaparsin] + C/C(O)=C(\C#N)C(=O)Nc1cc(Br)ccc1Br [LFM-A13] (first compound 0.4 µM, partner dose 2 µM), the “cleaved PARP positive nuclei fraction” value came out at 195%. As for `Cn1c(=O)n(-c2ccc(C(C)(C)C#N)cc2)c2c3cc(-c4cnc5ccccc5c4)ccc3ncc21` + N.N.[Cl][Pt][Cl] [cisplatin] (first compound 0.004 µM, partner dose 1.6 µM), the “cleaved PARP positive nuclei fraction” value amounted to 72.6%. Same read-out and setting: then `CC(=O)O[C@@]12CO[C@@H]1C[C@H](O)[C@@]1(C)C(=O)[C@H](O)C3=C(C)[C@@H](OC(=O)[C@H](O)[C@@H](NC(=O)OC(C)(C)C)c4ccccc4)C[C@@](O)([C@@H](OC(=O)c4ccccc4)[C@H]21)C3(C)C` [Docetaxel] + C[As](C)SC[C@H](NC(=O)CC[C@H](N)C(=O)O)C(=O)NCC(=O)O [Darinaparsin] (first compound 0.0001 µM, partner dose 0.4 µM), with 213%; and `C[C@]12O[C@H](C[C@]1(O)CO)n1c3ccccc3c3c4c(c5c6ccccc6n2c5c31)CNC4=O` [Lestaurtinib] + Cn1c(Nc2ccc(C(F)(F)F)cc2)nc2cc(Oc3ccnc(-c4ncc(C(F)(F)F)[nH]4)c3)ccc21 [CHIR265] (first compound 0.004 µM, partner dose 0.08 µM), with 59.8%.

Turning to `Cn1cc(C2=C(c3cn(C4CCN(Cc5ccccn5)CC4)c4ccccc34)C(=O)NC2=O)c2ccccc21` [Enzastaurin] + Cc1cc(Nc2cc(N3CCN(C)CC3)nc(/C=C/c3ccccc3)n2)n[nH]1 [ENMD2076] (first compound 0.8 µM, partner dose 0.04 µM), the “cleaved PARP positive nuclei fraction” value turned out to be 29.4%. Regarding `Cc1cc(Nc2cc(N3CCN(C)CC3)nc(Sc3ccc(NC(=O)C4CC4)cc3)n2)n[nH]1` [Tozasertib] + N.N.[Cl][Pt][Cl] [cisplatin] (first compound 0.006 µM, partner dose 1.6 µM), the “cleaved PARP positive nuclei fraction” value turned out to be 48.6%. Regarding `C[C@]12O[C@H](C[C@]1(O)CO)n1c3ccccc3c3c4c(c5c6ccccc6n2c5c31)CNC4=O` [Lestaurtinib] + C[C@@H](Oc1cc(-c2cnn(C3CCNCC3)c2)cnc1N)c1c(Cl)ccc(F)c1Cl [Crizotinib] (first compound 0.004 µM, partner dose 0.2 µM), the “cleaved PARP positive nuclei fraction” value worked out at 120%. As to `N.N.[Cl][Pt][Cl]` [cisplatin] + Clc1ccc(Nc2nnc(Cc3ccncc3)c3ccccc23)cc1 [vatalanib] (first compound 1.6 µM, partner dose 2 µM), the “cleaved PARP positive nuclei fraction” value worked out at 62.4%. Take `O=c1[nH]nc(Sc2ncc([N+](=O)[O-])s2)n1-c1ccc2c(c1)OCCO2` + C[C@]12O[C@H](C[C@]1(O)CO)n1c3ccccc3c3c4c(c5c6ccccc6n2c5c31)CNC4=O [Lestaurtinib] (first compound 0.2 µM, partner dose 0.004 µM): the “cleaved PARP positive nuclei fraction” value amounted to 61.9%. Consider `COc1cc([C@@H]2c3cc4c(cc3[C@@H](O[C@@H]3O[C@@H]5CO[C@@H](C)O[C@H]5[C@H](O)[C@H]3O)[C@H]3COC(=O)[C@H]23)OCO4)cc(OC)c1O` [etoposide] + N.N.[Cl][Pt][Cl] [cisplatin] (first compound 0.02 µM, partner dose 1.6 µM), for which the “cleaved PARP positive nuclei fraction” value was determined as 43.6%. Turning to `C[C@]12O[C@H](C[C@]1(O)CO)n1c3ccccc3c3c4c(c5c6ccccc6n2c5c31)CNC4=O` [Lestaurtinib] + C[As](C)SC[C@H](NC(=O)CC[C@H](N)C(=O)O)C(=O)NCC(=O)O [Darinaparsin] (first compound 0.004 µM, partner dose 0.4 µM), the “cleaved PARP positive nuclei fraction” value was found to be 42.8%. With `COc1ccc(COc2ccc(Cc3cnc(N)nc3N)cc2OC)cc1` + O=C(Oc1ccc([N+](=O)[O-])cc1)N1CCC(C(O)(c2ccc3c(c2)OCO3)c2ccc3c(c2)OCO3)CC1 [JZL184] (first compound 1 µM, partner dose 1 µM), the “cleaved PARP positive nuclei fraction” value was determined as 84.8%. As for `Cn1cc(C2=C(c3cn(C4CCN(Cc5ccccn5)CC4)c4ccccc34)C(=O)NC2=O)c2ccccc21` [Enzastaurin] + NC1(c2ccc(-c3nc4ccn5c(=O)[nH]nc5c4cc3-c3ccccc3)cc2)CCC1 [MK2206] (first compound 0.8 µM, partner dose 0.4 µM), the “cleaved PARP positive nuclei fraction” value was 38.1%. On the same count and under the same terms, as for `NC(=O)c1ccc(N(C(N)=O)c2c(F)cccc2F)nc1-c1ccc(F)cc1F` + O=C(Oc1ccc([N+](=O)[O-])cc1)N1CCC(C(O)(c2ccc3c(c2)OCO3)c2ccc3c(c2)OCO3)CC1 [JZL184] (first compound 0.4 µM, partner dose 1 µM), the figure is 201%.

`C[C@]12O[C@H](C[C@]1(O)CO)n1c3ccccc3c3c4c(c5c6ccccc6n2c5c31)CNC4=O` [Lestaurtinib] + COc1ccc(COc2ccc(Cc3cnc(N)nc3N)cc2OC)cc1 [GW2580] (first compound 0.004 µM, partner dose 1 µM): the “cleaved PARP positive nuclei fraction” value is 42.6%. The same measure, in the same setting: then `Cn1cc(C2=C(c3cn(C4CCN(Cc5ccccn5)CC4)c4ccccc34)C(=O)NC2=O)c2ccccc21` [Enzastaurin] + N.N.[Cl][Pt][Cl] [cisplatin] (first compound 0.8 µM, partner dose 1.6 µM), with 169%; and `C[As](C)SC[C@H](NC(=O)CC[C@H](N)C(=O)O)C(=O)NCC(=O)O` [Darinaparsin] + COc1cc(N2CCC(N3CCN(C)CC3)CC2)ccc1Nc1ncc(Cl)c(Nc2ccccc2S(=O)(=O)C(C)C)n1 [NVP-TAE684] (first compound 0.4 µM, partner dose 0.08 µM), with 127%; and `C[C@]12O[C@H](C[C@]1(O)CO)n1c3ccccc3c3c4c(c5c6ccccc6n2c5c31)CNC4=O` [Lestaurtinib] + Cn1nnc2c(C(N)=O)ncn2c1=O [temozolomide] (first compound 0.004 µM, partner dose 2 µM), with 92.1%.
